Legend:
[1] = biological target: Tubulin alpha chain (Sus scrofa) (UniProt P02550); details: at 5 µM
CA46 = assay: Inhibits the growth of the human Burkitt lymphoma CA46 cell; type: functional, cell-based

Sequences of proteins named here, by UniProt entry; tags and fusion partners are left off.
UniProt P02550, whole entry, looked up: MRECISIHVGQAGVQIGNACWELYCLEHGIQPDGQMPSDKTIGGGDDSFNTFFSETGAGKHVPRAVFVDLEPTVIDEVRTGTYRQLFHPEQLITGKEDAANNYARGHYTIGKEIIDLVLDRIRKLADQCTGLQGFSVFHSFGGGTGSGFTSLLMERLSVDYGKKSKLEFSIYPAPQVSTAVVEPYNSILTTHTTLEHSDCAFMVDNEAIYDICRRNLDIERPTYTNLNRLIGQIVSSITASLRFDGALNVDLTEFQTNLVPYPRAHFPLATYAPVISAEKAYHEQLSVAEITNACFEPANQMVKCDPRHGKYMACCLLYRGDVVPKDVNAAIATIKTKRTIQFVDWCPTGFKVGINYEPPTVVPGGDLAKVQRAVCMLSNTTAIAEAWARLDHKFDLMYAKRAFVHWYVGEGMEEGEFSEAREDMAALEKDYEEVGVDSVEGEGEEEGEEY

Row | Compound | inhibition [1] | IC50 (CA46)
1 | COc1cc2c(c(OC)c1OC)-c1ccc(SC)c(=O)cc1[C@@H](NC(C)=O)CC2 | 45% | 
2 | COc1cc2c(c(OC)c1OC)-c1ccc(SC)c(=O)cc1[C@@H](N)CC2 | 49% | 38 µM

— ChEMBL document CHEMBL1129977, “Antitumor agents. 172. Synthesis and biological evaluation of novel deacetamidothiocolchicin-7-ols and ester analogs as antitubulin agents” (J Med Chem, 1997)
